Measured values reported in article doi:10.1101/2024.04.16.588673 (bioRxiv, 2024).
These are yes or no findings as the source states them, for the method shown. In cells and extracts the contact can be indirect. Some binding calls cover weakened binding; strength is not graded here.

Amino acid sequences for entries named in this document (tags omitted). Residues count along the entry.
UniProt Q03431, residues 27-593: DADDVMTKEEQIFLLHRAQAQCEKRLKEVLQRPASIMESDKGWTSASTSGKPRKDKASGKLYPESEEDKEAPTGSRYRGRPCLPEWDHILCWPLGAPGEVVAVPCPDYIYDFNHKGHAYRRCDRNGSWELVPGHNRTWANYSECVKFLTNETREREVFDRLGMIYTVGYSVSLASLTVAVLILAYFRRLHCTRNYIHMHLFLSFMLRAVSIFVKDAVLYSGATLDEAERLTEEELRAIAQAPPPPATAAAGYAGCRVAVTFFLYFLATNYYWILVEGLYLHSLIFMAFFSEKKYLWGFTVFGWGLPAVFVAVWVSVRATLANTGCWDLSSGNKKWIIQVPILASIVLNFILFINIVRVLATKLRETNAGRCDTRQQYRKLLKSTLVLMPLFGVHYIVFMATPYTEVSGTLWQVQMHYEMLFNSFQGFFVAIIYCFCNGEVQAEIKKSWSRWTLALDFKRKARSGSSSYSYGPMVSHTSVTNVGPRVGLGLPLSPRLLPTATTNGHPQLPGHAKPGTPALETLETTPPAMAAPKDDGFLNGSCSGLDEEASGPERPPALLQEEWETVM
UniProt O60894, residues 27-148: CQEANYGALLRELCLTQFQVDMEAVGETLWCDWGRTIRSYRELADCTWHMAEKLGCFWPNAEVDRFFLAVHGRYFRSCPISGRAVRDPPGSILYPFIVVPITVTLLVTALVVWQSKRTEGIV
UniProt P32121: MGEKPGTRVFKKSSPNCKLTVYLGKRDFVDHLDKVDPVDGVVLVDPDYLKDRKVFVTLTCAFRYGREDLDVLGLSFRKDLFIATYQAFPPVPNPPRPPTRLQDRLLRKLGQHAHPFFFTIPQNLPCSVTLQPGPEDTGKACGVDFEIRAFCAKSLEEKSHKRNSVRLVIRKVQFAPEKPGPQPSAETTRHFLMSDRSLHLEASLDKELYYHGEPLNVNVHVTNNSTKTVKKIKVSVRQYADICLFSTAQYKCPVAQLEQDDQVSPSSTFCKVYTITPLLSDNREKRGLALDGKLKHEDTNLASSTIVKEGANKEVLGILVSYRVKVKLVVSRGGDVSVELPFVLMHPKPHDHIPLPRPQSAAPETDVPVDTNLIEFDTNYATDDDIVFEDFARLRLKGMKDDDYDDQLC

Columns and labels:
[1] = molecular target: parathyroid hormone 1 receptor (PTH1R), C-tagged Citrine (human) (UniProt Q03431); assay: FRET or BRET
[2] = molecular target: PTH1R of the PathHunter CHO-K1 PTH1R β-arrestin cell line (UniProt Q03431); assay: split reporter

binding [1] | binding [2] | Substance
no binding | – | receptor activity-modifying protein 1 (RAMP1), C-tagged Cerulean (from UniProt O60894 27-148)
– | binds | β-arrestin-2 of the PathHunter CHO-K1 PTH1R β-arrestin cell line (from UniProt P32121 1-409)
